# Laboratory results taken from PubChem BioAssay AID588499 (NMMLSC, 2011).
# Hit rate of the full screen: of about 360,000 compounds, about 610 (0.17%) were called active. This list was built around the results that the source calls inconclusive (neither active nor inactive); the mix of calls is not that of the screen. Cut-off read from the data, not from the text of the source: active = inhibition above about 30%; inconclusive = no clear call, values can overlap the other calls; inactive = below that.
# Tested on: Botulinum neurotoxin type A light chain protease (Clostridium botulinum A str. ATCC 3502)
# Test: blockers of BoNT/A LC substrate cleavage – biochemical, flow cytometry, MLPCN library, primary screen (AID 588499); note: plate controls were buffer without enzyme for full effect and enzyme alone for no effect
# Conditions: multiplex microsphere protease substrate cleavage, at 10 µM, stronger effect = higher value
row,Compound,inhibition
1,O=C(Nc1cccc(NC(=O)c2ccco2)c1)c1cnccn1,inconclusive: -4%
2,Cc1sc2ncn(CC(=O)NCC(=O)N(C)Cc3ccccc3)c(=O)c2c1C,inactive: 1.4%
3,Cc1ccc(C2=N/C(=C\c3cccs3)C(=O)N2Nc2ccccc2)cc1,active: 120%
4,Oc1ccc(Nc2nc(-c3ccc(O)cc3)cs2)cc1,inactive: -0.4%
5,C=CCc1cc(C(=O)N2CCCCC2)ccc1O,inconclusive: -8.8%
6,CCOc1cc(N2CCOCC2)c(OCC)cc1NC(=O)c1ccccc1N1CCCC1=O,inactive: -0.1%
7,N=c1sc2ccccc2n1-c1ccccc1,active: 32.3%
8,Cc1ccc(-n2cc3c(-c4cccc(Br)c4)nnc(C)c3n2)cc1,inconclusive: -17.1%
9,O=c1c(-c2nc3ccccc3s2)cccn1Cc1ccccc1,inconclusive: 3%
10,COc1ccc(S(=O)(=O)N2CCC(NC(=O)Nc3ccc(C)cc3)CC2)cc1,inconclusive: 4.7%
11,O=C1c2ccccc2NC(c2ccc(O)cc2)N1Cc1ccco1 (centres undefined),inconclusive: 6.7%
12,CC(=O)Nc1sc2c(c1C#N)CCCCC2,inconclusive: -3%
13,O=C(CSc1nncn1-c1ccccc1)c1c[nH]c2ccccc12,active: 52.9%
14,Cc1cc(C=C2C(=O)N(C)C(=S)N(C)C2=O)c(C)n1C1CCCC1,active: 53.7%
15,CCc1cccc(CC)c1NC(=S)NCc1ccc2[nH]c(C)cc2c1,active: 34.3%
16,Cc1cc(C)n(CCO)c(=O)n1,inconclusive: 3.9%
17,CCOc1ccc(CCNC(=O)CCCN2C(=O)c3ccccc3C2=O)cc1OCC,inconclusive: 2.4%
18,OC(c1ccccc1)(c1nc(-c2ccccc2)cs1)C(F)(F)F (centres undefined),inactive: -0.2%
19,CCCCOC(=O)Nc1ccc(S(=O)(=O)Nn2cnnc2)cc1,inconclusive: -20.9%
20,Cc1ccccc1CC(=O)N1CCOCC1,inactive: -1.4%
21,Cc1ccc(O)c(NC(=O)CCC2CCCCC2)c1,inactive: -0.3%
22,CS(=O)(=O)N1CCN(C(=O)Cc2cccs2)CC1,inconclusive: -1.5%
23,CCCCN1CC(N2CCN(C(=O)c3ccco3)CC2)CS1(=O)=O (centres undefined),inactive: -2.4%
24,CN(c1ccccc1)S(=O)(=O)c1cccc(Cl)c1Cl,inactive: 0%

row,Compound,inhibition
1,CC(SC1CCCC1)C(=O)Nc1ccnn1C(C)C (centres undefined),inconclusive: 1.8%
2,CC1CN(S(=O)(=O)c2ccc(F)cc2)C(C)N1C(=O)N1CCOCC1 (centres undefined),inactive: -1.2%
3,Fc1ccc(OCc2nc(-c3ccncc3)n[nH]2)cc1,inactive: -0.5%
4,C1=C(c2ccccc2)CCNC1,inconclusive: -0.5%
5,CCC(=O)Nc1ccc(NC(=S)NC(=O)/C=C/c2ccco2)cc1,inconclusive: -5.2%
6,Cc1nc(SCC(=O)Nc2c(C)n(C)n(-c3ccccc3)c2=O)[nH]c(=O)c1Cc1ccccc1,inactive: 0.7%
7,O=c1c(C(c2ccc(Cl)cc2)c2c(O)nc3n(c2=O)CCCS3)c(O)nc2n1CCCS2,inconclusive: -17.1%
8,O=C(NC(=S)Nc1ccc2c(c1)OCCO2)c1ccccc1,inconclusive: -4.6%
9,CC(/C=C/c1ccco1)=N\NC(=O)c1cc(C)[nH]n1,inconclusive: 2.2%
10,CC(C)(C)C(=O)O/N=C(\N)c1c(Cl)cccc1Cl,inconclusive: -19.7%
11,Cc1nn(C2CCS(=O)(=O)C2)c2nc(C3CC3)cc(C(=O)Nc3ccc(C(N)=O)cc3)c12 (centres undefined),inconclusive: 3.5%
12,Clc1cccc(Cl)c1CO/N=C/c1c(-c2ccccc2)nc2n1CCS2,inconclusive: -2.7%
13,Cc1c(C)c2ccc(OCC(=O)N3C[C@H]4C[C@@H](C3)c3cccc(=O)n3C4)cc2oc1=O,inactive: -0.1%
14,O=S(=O)(NC1c2cccc3cccc(c23)C1N1CCNCC1)c1ccccc1 (centres undefined),inactive: -1.2%
15,O=C1CN(C(=O)CSc2nnnn2-c2ccc(Cl)cc2)c2ccccc2N1,inconclusive: 3.2%
16,COC(=O)CSc1ncc(S(=O)(=O)c2ccccc2)c(=O)[nH]1,inactive: -0.7%
17,Fc1ccc2c(c1)C1C=CCC1C(c1cc3c(cc1Br)OCO3)N2 (centres undefined),inconclusive: 5.6%
18,CCCC(C)n1[nH]c(=O)c2c1NC(=O)CSC2c1ccc(OC)c(OC)c1 (centres undefined),inconclusive: -1.8%
19,COc1ccc(C(=O)NC(C)C2CC3CCC2C3)cc1 (centres undefined),inconclusive: -6.6%
20,COCCn1c(COc2ccccc2)nnc1SCC(N)=O,inconclusive: -0.3%
21,COc1ccc(/C=C/C(=O)c2ccncc2)c2ccccc12,active: 44.9%
22,O=C(Nc1cc(S(=O)(=O)N2CCCCC2)ccc1N1CCCCC1)C1CC1,inactive: 0.2%
23,CCOC(=O)Cn1c(=O)oc2cc(S(=O)(=O)Nc3cc(OCC)ccc3OCC)ccc21,inconclusive: -0.3%
24,O=C(CNC(=O)c1ccco1)OCc1c(F)cccc1Cl,inconclusive: 3.7%

# Three compounds already listed, ordered by heavy-atom count, largest number first:
row,Compound,inhibition
7,O=c1c(C(c2ccc(Cl)cc2)c2c(O)nc3n(c2=O)CCCS3)c(O)nc2n1CCCS2,inconclusive: -17.1%
16,COC(=O)CSc1ncc(S(=O)(=O)c2ccccc2)c(=O)[nH]1,inactive: -0.7%
10,CC(C)(C)C(=O)O/N=C(\N)c1c(Cl)cccc1Cl,inconclusive: -19.7%

# Next results follow.

row,Compound,inhibition
1,C=CCn1c(SCC(=O)Nc2cc(C)nn2-c2ccccc2)nnc1C1CCCCC1,inconclusive: -2.7%
2,Cc1ccc(O)c(C2=NCCNC(C(F)(F)F)=C2)c1,inconclusive: -5.4%
3,CC1CCN(C(=O)c2ccc(NS(=O)(=O)c3ccccc3)cc2)CC1,inconclusive: -1.7%
4,Cc1cccc(NC(=O)CN(C)S(=O)(=O)c2cccc3nsnc23)c1C,inactive: 0.8%
5,CCOc1ccc(CC2c3cc(OCC)c(OCC)cc3CCN2C(=O)CN2CCN(C)CC2)cc1OCC (centres undefined),inactive: -3.8%
6,COc1ccc(OC)c(N=c2oc3cc(O)ccc3cc2C(N)=O)c1,inconclusive: 166%
7,N/C(CN1CCCC1=O)=N\O,inactive: -3.7%
8,COc1nc(OC)nc(N2CCC(C(=O)NCc3cccs3)CC2)n1,inconclusive: 2.8%
9,Cc1ccc(C)c(N2CCN(S(=O)(=O)c3ccc4[nH]c(=O)c(=O)[nH]c4c3)CC2)c1,inconclusive: 7.6%
10,Cc1ccc(C(=O)N/N=C\c2ccccn2)cn1,inconclusive: -43.8%
11,COCCn1c(SCC(=O)N2CCCc3ccccc32)nc2ccccc2c1=O,inactive: 0.6%
12,COCCCNCCCCOc1c(Cl)cc(C)cc1Br,inconclusive: -2.4%
13,O=S(=O)(NCC1CCCO1)c1ccc(Oc2ccccc2)cc1 (centres undefined),inactive: -2.1%
14,c1ccc(-c2ccnc3nc(-n4cccc4)nn23)cc1,inconclusive: -0.7%
15,COc1ccc(N2CCN(C(=O)CSc3nnc(-c4cccnc4)n3-c3ccc(F)cc3)CC2)cc1,inconclusive: -0.7%
16,CN(C)C(=O)CSc1nnc([C@H](Cc2c[nH]c3ccccc23)NC(=O)OC(C)(C)C)o1,inconclusive: 0.4%
17,C=C(C)C1CC=C(C)/C(=N/NC(=O)c2ccc(NC(=O)CCC)cc2)C1 (centres undefined),inconclusive: -3.2%
18,Cc1onc(-c2ccccc2)c1-c1csc(N/N=C/c2ccccc2)n1,inconclusive: -10%
19,Cc1ccc2nc(-c3cccc(NC(=O)c4ccc5c(c4)OCCO5)c3)oc2c1,inconclusive: 0.5%
20,COC(=O)c1cc(C(=O)OC)n(Cc2ccc(Br)cc2)n1,inconclusive: -3.7%
21,N=c1c2c(-c3ccccc3)c(-c3ccccc3)n(Cc3ccccc3)c2ncn1CCCn1ccnc1,inactive: 0.7%
22,Cc1c(NC(=S)NC(=O)Cc2ccccc2)cccc1C(=O)O,inconclusive: 0.7%
23,Cc1cc(C(=O)N2CCN(c3ncccn3)CC2)sc1-c1ccccc1,inconclusive: -2.6%
24,Cc1c(CCC(=O)O)c(=O)oc2cc(OCc3ccccc3Br)ccc12,inactive: -2.8%

# Shown bar-delimited: part of the list above.
row | Compound | inhibition
9 | O=c1c(-c2nc3ccccc3s2)cccn1Cc1ccccc1 | inconclusive: 3%
3 | Fc1ccc(OCc2nc(-c3ccncc3)n[nH]2)cc1 | inactive: -0.5%
16 | COC(=O)CSc1ncc(S(=O)(=O)c2ccccc2)c(=O)[nH]1 | inactive: -0.7%
13 | O=S(=O)(NCC1CCCO1)c1ccc(Oc2ccccc2)cc1 (centres undefined) | inactive: -2.1%
17 | C=C(C)C1CC=C(C)/C(=N/NC(=O)c2ccc(NC(=O)CCC)cc2)C1 (centres undefined) | inconclusive: -3.2%

# Later entries

row,Compound,inhibition
1,COc1ccc(NC(=O)Cn2nc(C(F)(F)F)c3c2CCCC3)cc1OC,inconclusive: -6.7%
2,CCOc1ccc2[nH]cc(-c3csc(N)n3)c2c1,inconclusive: 6.1%
3,Cc1nnc(SCC(=O)Nc2nc(C(C)(C)C)cs2)s1,inconclusive: -2.1%
4,O=C(Nc1ccc(F)cc1)c1cnc(-c2ccccc2)nc1-c1ccccc1,inconclusive: 10.2%
5,Cc1cc2c(cc1S(=O)(=O)N1CC(C)CC(C)C1)OCC(=O)N2 (centres undefined),inactive: -0.9%
6,C=CCNc1oc(-c2ccc(OCC)cc2)nc1C#N,inconclusive: -3.1%
7,COc1cccc(NC(=O)NCCCCc2ccccc2)c1,inactive: 0.4%
8,Cc1cc(OCC(=O)N(C)c2ccccc2)cc2c1C(=O)CC(C)(C)O2,inconclusive: 4.6%
9,CC(NC(=O)COC(=O)c1cc2ccccc2cc1O)c1ccccc1 (centres undefined),inconclusive: 0.3%
10,Cc1ccc(C2CC(C(F)(F)F)n3ncc(C(=O)NCc4ccco4)c3N2)cc1 (centres undefined),inconclusive: -4.6%
11,CN(CC(=O)Nc1ccc(Cl)c(Cl)c1)C1CCCCC1,inactive: -0.7%
12,CCCN1CCc2c(sc3nc(SC)n(-c4ccccc4)c(=O)c23)C1,active: 33.2%
13,C=CCN1CCN(C(=O)c2ccc(-c3ccccc3)cc2)CC1,inactive: -0.9%
14,Cc1cc(C)cc(NC(=O)CSc2nc(=O)n3cc(C)ccc3n2)c1,inconclusive: 5.7%
15,Cc1ccc(Sc2nnc(Cc3ccccc3)c3ccccc23)cc1,inconclusive: 2.4%
16,COC(=O)CC1(c2ccccc2)C(=O)c2ccccc2C1=O,inconclusive: -1.4%
17,CC1CCCC(NC(=O)c2cc(-c3ccncc3)nc3ccccc23)C1C (centres undefined),inconclusive: 0.1%
18,CCC(=O)c1ccc(OCC(=O)OCC(=O)NC2CCCCCCC2)cc1,inactive: -1.2%
19,CCN(CC)CC(=O)N1c2ccccc2CCc2ccc(NC(=O)c3cc(OC)c(OC)c(OC)c3)cc21,inconclusive: 20.9%
20,CC(C)OCCCNC(=O)c1c(N)n(/N=C/c2cccs2)c2nc3ccccc3nc12,inconclusive: 8.3%
21,CCOC(=O)c1ccc2c(c1)sc(=NC(=O)c1ccco1)n2CCOC,inactive: -0.3%
22,N#Cc1ccc(CN(c2ccncc2)S(=O)(=O)c2ccccc2)cc1,inactive: -1.6%
